# Structures can show the parent of a compound that is named as a salt. This is one part of the list. The calls rarely recur for the same compound in another form.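 Kinases were expressed as nanoluciferase fusions in K562 cells and luminescence was read every 4 h between 2 and 18 h as percent of control, DMSO set to 100% and a positive control to 0%. A time point counts as decreased when the signal drops significantly (2 sigma). The hit call is the authors' own, does not follow from the count of time points alone, and its rule is not shown.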
# Amino acid sequences for entries named in this document (tags omitted). A change or cut given only in a name is not applied to a line headed by its entry.
# UniProt Q9UQM7, whole entry: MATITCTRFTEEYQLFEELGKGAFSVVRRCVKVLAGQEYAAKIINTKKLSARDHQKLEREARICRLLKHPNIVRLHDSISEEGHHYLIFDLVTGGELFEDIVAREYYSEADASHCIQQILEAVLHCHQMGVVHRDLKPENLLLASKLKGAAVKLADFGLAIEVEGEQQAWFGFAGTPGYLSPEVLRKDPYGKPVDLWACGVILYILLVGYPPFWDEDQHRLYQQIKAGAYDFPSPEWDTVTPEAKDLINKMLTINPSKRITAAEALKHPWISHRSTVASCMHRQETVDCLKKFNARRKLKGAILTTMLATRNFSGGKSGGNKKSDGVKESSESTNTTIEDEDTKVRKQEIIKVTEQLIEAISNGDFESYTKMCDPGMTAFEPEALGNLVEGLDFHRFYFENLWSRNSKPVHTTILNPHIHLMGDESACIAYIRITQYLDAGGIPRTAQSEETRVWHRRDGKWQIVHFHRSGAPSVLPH
# UniProt Q13555: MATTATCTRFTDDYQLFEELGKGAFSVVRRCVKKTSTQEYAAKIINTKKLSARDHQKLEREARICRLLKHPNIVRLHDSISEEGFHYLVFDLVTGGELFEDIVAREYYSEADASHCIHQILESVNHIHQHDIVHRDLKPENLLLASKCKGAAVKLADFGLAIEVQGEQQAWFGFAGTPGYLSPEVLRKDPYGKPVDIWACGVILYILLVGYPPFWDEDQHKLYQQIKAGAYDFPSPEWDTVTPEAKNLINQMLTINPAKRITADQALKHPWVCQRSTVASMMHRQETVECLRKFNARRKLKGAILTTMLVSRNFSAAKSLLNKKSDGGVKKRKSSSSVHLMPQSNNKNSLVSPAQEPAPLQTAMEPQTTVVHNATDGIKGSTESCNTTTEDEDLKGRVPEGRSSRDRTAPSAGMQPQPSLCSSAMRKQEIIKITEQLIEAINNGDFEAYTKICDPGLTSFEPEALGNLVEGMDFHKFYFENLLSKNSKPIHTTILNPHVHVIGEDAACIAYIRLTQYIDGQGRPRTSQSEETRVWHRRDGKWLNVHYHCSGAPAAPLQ
# UniProt Q15131: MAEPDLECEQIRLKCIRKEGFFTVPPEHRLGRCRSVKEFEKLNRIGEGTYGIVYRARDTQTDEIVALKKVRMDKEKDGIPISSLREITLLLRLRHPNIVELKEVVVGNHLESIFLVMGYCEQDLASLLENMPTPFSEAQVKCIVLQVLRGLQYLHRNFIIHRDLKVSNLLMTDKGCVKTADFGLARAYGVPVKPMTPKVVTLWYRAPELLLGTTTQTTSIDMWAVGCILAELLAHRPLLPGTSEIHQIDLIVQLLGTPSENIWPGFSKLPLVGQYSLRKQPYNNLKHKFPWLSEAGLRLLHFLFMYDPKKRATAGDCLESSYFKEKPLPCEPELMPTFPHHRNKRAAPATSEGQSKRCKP
# UniProt Q00526: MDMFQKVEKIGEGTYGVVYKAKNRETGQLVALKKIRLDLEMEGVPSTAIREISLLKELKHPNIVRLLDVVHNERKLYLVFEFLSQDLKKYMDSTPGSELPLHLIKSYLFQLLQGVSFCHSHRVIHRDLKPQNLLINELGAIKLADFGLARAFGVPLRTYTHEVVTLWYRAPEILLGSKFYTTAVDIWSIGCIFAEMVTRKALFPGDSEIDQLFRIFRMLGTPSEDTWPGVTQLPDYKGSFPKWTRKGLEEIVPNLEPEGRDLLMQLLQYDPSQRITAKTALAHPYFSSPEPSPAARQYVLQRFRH
# UniProt Q00535, whole entry, looked up: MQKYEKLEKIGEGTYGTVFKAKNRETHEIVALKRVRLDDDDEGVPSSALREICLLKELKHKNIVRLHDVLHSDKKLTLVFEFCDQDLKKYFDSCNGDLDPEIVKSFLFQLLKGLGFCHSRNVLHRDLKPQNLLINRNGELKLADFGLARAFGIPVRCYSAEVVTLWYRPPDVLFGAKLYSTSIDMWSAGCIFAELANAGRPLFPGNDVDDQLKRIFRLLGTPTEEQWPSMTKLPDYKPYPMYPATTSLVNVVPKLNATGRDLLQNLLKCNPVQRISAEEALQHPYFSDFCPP
# UniProt Q00534, whole entry: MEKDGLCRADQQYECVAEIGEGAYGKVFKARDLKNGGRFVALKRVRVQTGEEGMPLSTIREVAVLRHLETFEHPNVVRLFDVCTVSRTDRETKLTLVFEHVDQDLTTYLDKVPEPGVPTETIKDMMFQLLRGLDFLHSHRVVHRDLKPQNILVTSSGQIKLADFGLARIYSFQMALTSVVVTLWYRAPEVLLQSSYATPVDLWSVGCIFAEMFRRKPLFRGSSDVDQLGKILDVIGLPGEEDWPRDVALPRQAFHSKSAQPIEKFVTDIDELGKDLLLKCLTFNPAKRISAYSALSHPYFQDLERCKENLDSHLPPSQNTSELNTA
# UniProt O96017, whole entry: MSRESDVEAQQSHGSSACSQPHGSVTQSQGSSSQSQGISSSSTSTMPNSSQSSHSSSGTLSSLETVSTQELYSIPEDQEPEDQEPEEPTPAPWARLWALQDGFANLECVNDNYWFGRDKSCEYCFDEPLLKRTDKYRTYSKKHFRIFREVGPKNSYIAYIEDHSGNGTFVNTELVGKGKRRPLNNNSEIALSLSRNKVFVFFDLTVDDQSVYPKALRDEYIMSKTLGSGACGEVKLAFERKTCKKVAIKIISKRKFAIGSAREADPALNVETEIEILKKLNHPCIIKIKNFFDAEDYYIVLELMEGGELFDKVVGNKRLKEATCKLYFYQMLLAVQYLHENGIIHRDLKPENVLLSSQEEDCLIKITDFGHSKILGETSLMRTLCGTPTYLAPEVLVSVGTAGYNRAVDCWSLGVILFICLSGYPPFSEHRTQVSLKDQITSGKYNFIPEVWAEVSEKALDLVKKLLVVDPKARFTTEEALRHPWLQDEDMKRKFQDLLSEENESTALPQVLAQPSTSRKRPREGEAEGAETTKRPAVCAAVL
# UniProt P07333, whole entry: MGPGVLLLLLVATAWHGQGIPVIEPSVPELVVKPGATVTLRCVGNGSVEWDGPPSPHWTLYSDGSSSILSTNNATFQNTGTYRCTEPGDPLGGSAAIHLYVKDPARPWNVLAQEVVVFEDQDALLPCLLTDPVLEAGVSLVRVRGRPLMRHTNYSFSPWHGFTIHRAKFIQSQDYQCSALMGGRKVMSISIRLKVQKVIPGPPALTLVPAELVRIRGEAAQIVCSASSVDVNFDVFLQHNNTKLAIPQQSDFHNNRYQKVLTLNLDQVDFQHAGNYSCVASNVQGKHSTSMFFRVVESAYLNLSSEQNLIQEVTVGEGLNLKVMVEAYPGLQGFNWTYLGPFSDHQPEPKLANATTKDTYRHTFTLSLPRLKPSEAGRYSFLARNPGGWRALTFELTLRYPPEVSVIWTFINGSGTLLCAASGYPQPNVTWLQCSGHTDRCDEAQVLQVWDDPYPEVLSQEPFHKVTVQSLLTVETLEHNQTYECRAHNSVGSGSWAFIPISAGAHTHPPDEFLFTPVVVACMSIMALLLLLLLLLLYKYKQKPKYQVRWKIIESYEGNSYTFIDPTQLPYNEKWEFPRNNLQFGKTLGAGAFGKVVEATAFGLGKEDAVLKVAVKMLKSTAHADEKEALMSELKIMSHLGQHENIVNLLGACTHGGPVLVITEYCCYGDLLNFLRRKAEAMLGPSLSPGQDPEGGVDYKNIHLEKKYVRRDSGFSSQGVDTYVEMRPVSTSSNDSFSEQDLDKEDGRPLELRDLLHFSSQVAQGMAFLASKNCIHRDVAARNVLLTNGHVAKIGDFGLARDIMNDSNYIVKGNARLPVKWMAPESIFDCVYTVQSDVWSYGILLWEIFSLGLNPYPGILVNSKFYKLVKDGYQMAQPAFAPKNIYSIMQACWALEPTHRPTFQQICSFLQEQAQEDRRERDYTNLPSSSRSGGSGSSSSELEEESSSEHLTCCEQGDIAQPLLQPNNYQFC
# UniProt P41240: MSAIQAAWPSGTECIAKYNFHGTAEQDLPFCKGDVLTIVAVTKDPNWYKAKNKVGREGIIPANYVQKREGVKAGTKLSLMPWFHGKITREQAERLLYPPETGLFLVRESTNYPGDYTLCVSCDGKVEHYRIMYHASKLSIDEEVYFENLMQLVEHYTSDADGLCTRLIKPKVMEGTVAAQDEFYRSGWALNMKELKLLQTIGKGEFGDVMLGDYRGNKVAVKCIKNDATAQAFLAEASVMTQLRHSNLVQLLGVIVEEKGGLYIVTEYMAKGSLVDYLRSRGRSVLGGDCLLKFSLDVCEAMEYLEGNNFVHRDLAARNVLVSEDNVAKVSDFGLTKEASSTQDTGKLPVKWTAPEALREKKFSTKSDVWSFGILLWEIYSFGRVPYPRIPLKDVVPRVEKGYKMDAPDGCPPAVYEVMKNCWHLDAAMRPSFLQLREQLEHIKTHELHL
# What was measured:
# Test in all cases: number of time points (of 5) at which kinase-Nluc abundance scored as decreased, DMSO-normalised (count); higher = more persistent destabilization
# Conditions in all cases: K562; 2-18 h
# CAMK2A = CAMK2A (UniProt Q9UQM7)
# CAMK2G = CAMK2G (UniProt Q13555)
# CDK10 = CDK10 (UniProt Q15131)
# CDK2 = CDK2 (UniProt P24941)
# CDK3 = CDK3 (UniProt Q00526)
# CDK5 = CDK5 (UniProt Q00535)
# CDK6 = CDK6 (UniProt Q00534)
# CHEK2 = CHEK2 (UniProt O96017)
# CSF1R = CSF1R (UniProt P07333)
# CSK = CSK (UniProt P41240)
Structure (SMILES),number of time points (CAMK2A),number of time points (CAMK2G),number of time points (CDK10),number of time points (CDK2),number of time points (CDK3),number of time points (CDK5),number of time points (CDK6),number of time points (CHEK2),number of time points (CSF1R),number of time points (CSK)
O=C(Nc1ccnc(NC(=O)C2CC2)c1)c1c(Cl)cccc1Cl (10 µM),0,0,0,0,0,0,0,0,0,0
O=C1C=CC2=C3c4cc(O)c(O)cc4CC3(O)COC2=C1O (stereo not given) [Hematein] (10 µM),0,0,0,0,0,0,0,0,0,0
COc1cccc(-c2cc(=O)c3ccccc3o2)c1N (10 µM),0,0,0,0,0,0,0,0,0,0
Cc1cncc2cccc(S(=O)(=O)N3CCCNC[C@@H]3C)c12 [H-1152 (dihydrochloride)] (10 µM),0,0,0,0,0,0,0,0,0,0
NC(=O)c1sc2c([N+](=O)[O-])cc(C(F)(F)F)cc2[n+]1[O-] [Cyclapolin 9] (10 µM),0,0,0,0,0,0,0,0,0,0
Nc1ccc(-c2nc3ccc(-c4nc5ccc(N)cc5[nH]4)cc3[nH]2)cc1 (10 µM),0,0,0,0,0,0,0,0,0,0
CN(C)CCOc1cc(-c2cn[nH]c2)ccc1NC(=O)C1COc2ccccc2O1 (stereo not given) (10 µM),0,0,0,0,0,0,0,0,0,0
N#C/C(=C/c1ccc(O)c(O)c1)C(=O)N1CCc2ccccc21 [Tyrphostin AG 528] (10 µM),0,0,0,0,0,0,0,0,0,0
O=C(NC[C@H](O)CO)c1ccncc1Nc1ccc(I)cc1F [Pimasertib] (10 µM),0,1,0,0,0,0,0,2,0,0
CCNC(=O)Nc1ccc(-c2nc3c(c(N4CCOC[C@@H]4C)n2)CCN(C2COC2)C3)cc1 (2.5 µM),0,0,0,0,0,0,0,0,0,0
Fc1ccc(-c2nc3n(c2-c2ccncc2)CCS3)cc1 (10 µM),0,0,0,0,0,0,0,0,0,0
NCCNS(=O)(=O)c1ccc(Cl)c2ccncc12 [CKI-7 (free base)] (10 µM),0,0,0,0,0,0,0,0,0,0
C=CC(=O)Nc1cccc(Oc2nc(Nc3ccc(N4CCN(C)CC4)cc3OC)ncc2Cl)c1 (10 µM),0,0,0,0,0,0,0,0,0,0
O=C1CCC(N2C(=O)c3cccc(OCCCCCOc4ccc(CC(=O)Nc5cc(C6CCC6)[nH]n5)cc4)c3C2=O)C(=O)N1 (stereo not given) [PROTAC CDK9 Degrader-1] (10 µM),0,0,0,0,0,0,0,0,0,0
CNCCOc1ccccc1C1(Nc2nccn(-c3cc(C(=O)NC4CC4)cc(F)c3C)c2=O)CC1 (10 µM),0,0,0,0,0,0,0,0,0,0
O=C(COc1ccc(Cl)cc1)NC1CCC(NC(=O)COc2ccc(Cl)cc2)CC1 (stereo not drawn) [ISRIB (trans-isomer)] (10 µM),0,0,0,0,0,0,0,0,0,0
N#CC(=C(/N)Sc1ccccc1N)/C(C#N)=C(\N)Sc1ccccc1N (10 µM),0,0,0,0,0,0,0,0,0,0
CCOc1cc(=O)[nH]cc1-c1ccc(CC(=O)Nc2cc(C(C)(C)C(F)(F)F)on2)c(F)c1 (10 µM),0,0,0,0,0,0,0,0,0,0
O=[N+]([O-])c1ccc(-c2nc(-c3ccc(F)cc3)c(-c3ccncc3)[nH]2)cc1 (10 µM),0,0,0,0,0,0,3,0,0,0

Structure (SMILES),number of time points (CAMK2A),number of time points (CAMK2G),number of time points (CDK10),number of time points (CDK2),number of time points (CDK3),number of time points (CDK5),number of time points (CDK6),number of time points (CHEK2),number of time points (CSF1R),number of time points (CSK)
COc1cc(Nc2ccnc3ccc(Br)cc23)cc(OC)c1OC (2.5 µM),0,1,0,0,0,0,0,1,0,0
O=C(Nc1ccc(Cl)cc1)C1CN(C(=O)c2cccc(-c3ccco3)c2)CC(F)(F)C1 (stereo not given) (2.5 µM),0,0,0,0,0,0,0,0,0,0
Cc1nc2c(NCc3cccc(S(C)(=O)=O)c3)nccn2c1-c1ccc(O)c(F)c1 (10 µM),0,0,0,0,0,0,0,0,0,0
Cc1cnc(Cl)nc1-c1ccc(N(Cc2ccc(CNC(=O)C(F)F)cc2)C(=O)c2ccc(O)cc2O)cc1 (10 µM),0,0,0,0,0,0,0,0,0,0
C[C@@H]1COC(Nc2ccc3ncnc(Nc4ccc(OCc5nccs5)c(Cl)c4)c3c2)=N1 [Varlitinib] (10 µM),0,0,0,0,0,0,0,0,0,0
CCCS(=O)(=O)N[C@H]1C[C@@H](N(C)c2ncnc3[nH]ccc23)C1 [Abrocitinib] (10 µM),0,0,0,0,0,0,0,0,0,0
CNCc1cc(Oc2ccc3c(ccn3C(=O)Nc3cc(C(F)(F)F)n(C)n3)c2)ncn1 [Acrizanib] (10 µM),0,0,0,0,0,0,0,0,0,0
COc1c(O)cc(O)c2c(=O)cc(-c3ccccc3)oc12 [Wogonin] (10 µM),0,0,0,0,0,0,0,0,0,0
CC(=O)Nc1nc(C)c(-c2cc(C)c3c(c2)CN([C@@H](C)C2CC2)C3=O)s1 (10 µM),0,0,0,0,0,0,0,0,0,0
N#Cc1cc(N2CCC(C(=O)N3N=CC[C@H]3c3cc(F)cc(F)c3)CC2)ncn1 (10 µM),0,0,0,0,0,0,0,0,0,0
N=C(NC(=N)N1CCCC1)Nc1ccc(OC(F)(F)F)cc1 (10 µM),0,0,0,0,0,0,0,0,0,0
CCc1cc(Nc2nccc(-c3c(-c4ccc(OC)c(C(=O)Nc5c(F)cccc5F)c4)nc4ccccn34)n2)c(OC)cc1N1CCC(N2CCN(S(C)(=O)=O)CC2)CC1 (2.5 µM),0,0,0,0,0,0,4,1,0,0
CC1(C)CN(C(=O)c2ccc(-c3cccc4nc(NC(=O)C5CC5)nn34)cc2)C1 [Solcitinib] (10 µM),0,0,0,0,0,0,0,0,0,0
CC1=CC(=O)C(C(C)C)=C/C1=N/OC(=O)c1ccccc1C [Poloxin] (2.5 µM),0,0,0,0,0,0,0,0,0,0
CC1(C)C=Cc2c(ccc(C(=O)/C=C/c3ccc(O)cc3)c2O)O1 [4-Hydroxylonchocarpin] (10 µM),0,0,0,0,0,0,0,0,0,0
CC(=O)O[C@@H]1[C@@H](OC(C)=O)[C@@H](O)[C@H](Oc2c(-c3ccc(O)cc3)oc3cc(O)cc(O)c3c2=O)O[C@H]1C (10 µM),0,0,0,0,0,0,0,0,0,0
CN1CCN(Cc2ccc(-c3cn(C4CCC(O)CC4)c4nc(NCCC5CC5)ncc34)cc2)CC1 (stereo not given) (2.5 µM),0,0,0,0,0,0,0,0,1,0
C=CC(=O)N1CCC(c2ccc(C(N)=O)c(-c3ccc(Oc4ccccc4)cc3)n2)CC1 [Orelabrutinib] (2.5 µM),0,0,0,0,0,0,0,0,0,0

# Ordered by number of heavy atoms (largest number first): some entries from above.
Structure (SMILES),number of time points (CAMK2A),number of time points (CAMK2G),number of time points (CDK10),number of time points (CDK2),number of time points (CDK3),number of time points (CDK5),number of time points (CDK6),number of time points (CHEK2),number of time points (CSF1R),number of time points (CSK)
Cc1cnc(Cl)nc1-c1ccc(N(Cc2ccc(CNC(=O)C(F)F)cc2)C(=O)c2ccc(O)cc2O)cc1 (10 µM),0,0,0,0,0,0,0,0,0,0
CC(=O)O[C@@H]1[C@@H](OC(C)=O)[C@@H](O)[C@H](Oc2c(-c3ccc(O)cc3)oc3cc(O)cc(O)c3c2=O)O[C@H]1C (10 µM),0,0,0,0,0,0,0,0,0,0
CN1CCN(Cc2ccc(-c3cn(C4CCC(O)CC4)c4nc(NCCC5CC5)ncc34)cc2)CC1 (stereo not given) (2.5 µM),0,0,0,0,0,0,0,0,1,0
C=CC(=O)Nc1cccc(Oc2nc(Nc3ccc(N4CCN(C)CC4)cc3OC)ncc2Cl)c1 (10 µM),0,0,0,0,0,0,0,0,0,0
CNCc1cc(Oc2ccc3c(ccn3C(=O)Nc3cc(C(F)(F)F)n(C)n3)c2)ncn1 [Acrizanib] (10 µM),0,0,0,0,0,0,0,0,0,0
CC1(C)CN(C(=O)c2ccc(-c3cccc4nc(NC(=O)C5CC5)nn34)cc2)C1 [Solcitinib] (10 µM),0,0,0,0,0,0,0,0,0,0
N#CC(=C(/N)Sc1ccccc1N)/C(C#N)=C(\N)Sc1ccccc1N (10 µM),0,0,0,0,0,0,0,0,0,0
Cc1cncc2cccc(S(=O)(=O)N3CCCNC[C@@H]3C)c12 [H-1152 (dihydrochloride)] (10 µM),0,0,0,0,0,0,0,0,0,0
